# Where “and” joins values, the source holds several entries; their conditions need not be identical. Identical values can stand only once. Screen size: about 580,000 compounds; about 6,100 (1.1%) were called active. The shares of active, inactive and inconclusive entries below differ from those in the screen. The call rests on the fitted dose curve; in most records, active means well fitted inhibition curve with a large enough effect; inconclusive means small, poorly fitted or top-dose-only effect, or another doubt; inactive means no such curve, though single readings can be large or run the other way. A potency beside an inconclusive call is a rough fit, not a confirmed value.
# By UniProt entry, the sequences of proteins in these tests, tags left out.
# UniProt P18054, whole entry, looked up: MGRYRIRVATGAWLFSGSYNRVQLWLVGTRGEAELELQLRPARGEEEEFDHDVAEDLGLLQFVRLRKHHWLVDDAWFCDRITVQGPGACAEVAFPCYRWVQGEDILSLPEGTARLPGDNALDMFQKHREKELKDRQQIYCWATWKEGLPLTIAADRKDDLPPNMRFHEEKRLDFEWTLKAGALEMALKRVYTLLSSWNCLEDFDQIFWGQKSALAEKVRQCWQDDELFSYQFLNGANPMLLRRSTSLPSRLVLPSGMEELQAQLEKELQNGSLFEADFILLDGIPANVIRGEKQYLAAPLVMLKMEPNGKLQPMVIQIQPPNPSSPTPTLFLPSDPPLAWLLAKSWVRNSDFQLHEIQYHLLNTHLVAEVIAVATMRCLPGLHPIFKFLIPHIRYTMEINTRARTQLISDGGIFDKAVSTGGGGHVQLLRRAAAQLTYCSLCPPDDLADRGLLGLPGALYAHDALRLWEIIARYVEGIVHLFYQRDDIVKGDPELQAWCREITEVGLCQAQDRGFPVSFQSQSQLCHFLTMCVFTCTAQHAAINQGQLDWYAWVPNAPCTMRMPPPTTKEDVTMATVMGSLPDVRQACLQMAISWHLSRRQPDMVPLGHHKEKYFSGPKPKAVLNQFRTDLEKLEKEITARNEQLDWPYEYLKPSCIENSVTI
# Target: Polyunsaturated fatty acid lipoxygenase ALOX12 (Homo sapiens) (UniProt P18054)
# Assay: Primary qHTS assay for inhibitors of human arachidonate 12S-lipoxygenase (ALOX12): Round 2
# Details: purified 12hLO, xylenol orange hydroperoxide absorbance; activity change, negative = inhibition: at 108 µM (top of the series) unless noted
# Summary of the method: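 Purified human 12hLO (150 nM final) in 25 mM Hepes, 0.01% Triton X-100, pH 7.0 was preincubated 15 min at room temperature with compound. Then 40 uM arachidonic acid was added, 30 min. Hydroperoxide was read by Fe-XO absorbance ratio 573/405 nm.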
# On the % scale 0 is the no-effect control and ±100 the full control effect; potency means the concentration at half of the fitted maximal effect.
Compound,Potency,"activity change, negative = inhibition"
CC(=O)C1(C)C(=O)N(c2ccc(C)cc2)C(=O)N1c1ccc(C)cc1 (stereo not drawn),"inconclusive: 44.7 µM [inhibitor, partial curve, poor fit]",–
COC(=O)[C@]1(Cc2ccccc2)N[C@H](CN(C)C(=O)NC(C)C)[C@@H]2C(=O)N(C)C(=O)[C@@H]21,"inconclusive: 44.7 µM [inhibitor, partial curve, poor fit]",–
Cc1cccc(C)c1NC(=O)CN(C)C(=O)c1ccccc1Cc1ccccc1,–,inactive: -16.1%
CSCCNC(=O)Nc1c(-c2c(Cl)cccc2Cl)noc1C,"inconclusive: 126 µM [inhibitor, single point]",–
Cc1oc(-c2cccc(Cl)c2)nc1CSc1nc2ncccc2[nH]1,inactive,–
COc1cc(NC(=O)c2ccnc(N)c2)cc(C(=O)Nc2cccc(C(F)(F)F)c2)c1,"inconclusive: 10 µM [inhibitor, full curve]",–
O=C(NCC1CCCO1)c1cccc(NS(=O)(=O)c2ccc(Br)cc2)c1 (stereo not drawn),"inconclusive: 56.2 µM [inhibitor, partial curve, poor fit]",–
CN(C)c1cccc(C(=O)N[C@H]2CC[C@@]34CCCN3C(=O)CCC[C@H]4[C@H]2Cc2ccccc2)c1,"inconclusive: 44.7 µM [inhibitor, partial curve, poor fit]",–
O=C(COc1ccccc1Cl)Nc1ccc(Cl)c(-c2nc3ccccc3o2)c1,"inconclusive: 112 µM [inhibitor, partial curve, poor fit]",–
O=C(O)C(CCCCNS(=O)(=O)c1ccc(F)cc1)NS(=O)(=O)c1ccc(F)cc1 (stereo not drawn),"inconclusive: 63.1 µM [inhibitor, partial curve, poor fit]",–
O=C(NCCN1CCC(n2c(=O)[nH]c3ccccc32)CC1)c1ccc(F)c(C(F)(F)F)c1,"inconclusive: 44.7 µM [inhibitor, partial curve, poor fit]",–
Cc1cccc(NC(=O)C2CCCN2C(=O)OCc2ccccc2)c1 (stereo not drawn),–,inactive: 9.14%
O=C(O)c1cccc(NC(=O)c2ccccc2NC(=O)c2ccco2)c1,–,inactive: 16.2%
Cc1ccc([N+](=O)[O-])cc1S(=O)(=O)N1CCCC1,–,inactive: -1.86%
CC(C)Cc1cc(C(=O)O)n[nH]1,"inconclusive: 31.6 µM [inhibitor, full curve, poor fit]",–
CCOCc1cnc(C)nc1NCC(=O)c1c(C)n(C)c2ccc(OC)cc12,"inconclusive: 31.6 µM [inhibitor, partial curve, poor fit]",–
CC[C@]12c3[nH]c4cc(CCC(=O)N(C)C)ccc4c3CCN1C(=O)[C@@H](CC(=O)NCc1ccc(OC)c(OC)c1)C[C@@H]2C(=O)N1CCN(C(=O)C2CC2)CC1,"inconclusive: 44.7 µM [inhibitor, single point]",–
NC1(C(=O)N2CCCC(CCc3ccccc3F)C2)CCC1 (stereo not drawn),"inconclusive: 5.01 µM [inhibitor, partial curve, poor fit]",–
CS(=O)(=O)N1CCN(c2ccc(NC(=S)NC(=O)c3ccc4c(c3)OCO4)cc2)CC1,"inconclusive: 31.6 µM [inhibitor, partial curve]",–
COC(=O)[C@H](Cc1ccc(OC)cc1)NC(=O)[C@H]1CN(S(=O)(=O)c2ccccc2)CCN1C(=O)NC1CCCCC1,–,inactive: 5.87%
Cc1nc(Nc2ccccc2F)c2nnn(Cc3ccccc3Cl)c2n1,"inconclusive: 1.78 µM [inhibitor, full curve, poor fit]",–

Compound,Potency,"activity change, negative = inhibition"
O=c1[nH]c(C2CCCN(Cc3cccc(-c4ccsc4)c3)C2)nc2ccc(F)cc12 (stereo not drawn),"inconclusive: 20 µM [inhibitor, full curve, poor fit] and active: 25.1 µM",–
Cc1ccc(S(=O)c2ccc([N+](=O)[O-])c3nonc23)cc1 (stereo not drawn),active: 2 µM,–
CCCOc1ccc(-c2csc(-c3ccc(Cl)cc3)n2)cc1,"inconclusive: 126 µM [inhibitor, single point]",–
Cc1c(F)cccc1NC(=O)N1CCCC(c2noc(COc3ccccc3F)n2)C1 (stereo not drawn),–,inactive: 10.9%
C#CCOCCOCCOCCNc1nc(N2CCN(C(=O)C([C@@H](C)CC)n3cc(C(N)Cc4ccc(O)cc4)nn3)CC2)nc(N2CCN(C(=O)[C@H](CCC(=O)O)n3cc(C(N)[C@H](C)CC)nn3)CC2)n1 (stereo partly drawn),"inconclusive: 3.16 µM [inhibitor, full curve, poor fit]",–
CCc1ccc(CNC(=O)c2ccc3nc(C(C)C)oc3c2)cc1,"inconclusive: 112 µM [inhibitor, partial curve, poor fit]",–
Cc1c(C(=O)O)nn(-c2cccc(C(F)(F)F)c2)c(=O)c1C#N,–,inactive: -2.54%
O=C(COC(=O)CC12CC3CC(CC(C3)C1)C2)Nc1ccc(F)c([N+](=O)[O-])c1,–,inactive: -6.87%
O=c1cc(N2CCOCC2)oc2c(N3CCOCC3)nccc12,–,inactive: 7.14% [at 176 µM]
CC1=NN(c2ccccc2)C(=O)C1,"inconclusive: 6.11 µM [inhibitor, full curve, poor fit]",–
Cn1cc(-c2ccc(C(=O)NCc3cccc(Cl)c3)c3occc23)cn1,"inconclusive: 35.5 µM [inhibitor, partial curve]",–
COc1ccccc1/C=C1\SC(=S)N(CCC(=O)NCCc2ccc(O)cc2)C1=O,–,inactive: -7.21%
O=C(CCc1nc2ccccc2c(=O)[nH]1)N1CCN(C/C=C/c2ccccc2)CC1,–,inactive: -1.6%
COc1ccc(C2C/C(=N\O)C(C)(C)O2)cc1 (stereo not drawn),"inconclusive: 112 µM [inhibitor, single point]",–
O=C(Nc1ccc2oc(-c3cccnc3)nc2c1)c1ccc(-c2ccccc2)o1,"inconclusive: 50.1 µM [inhibitor, partial curve, poor fit]",–
Cc1ccc(C(C)C)c(OCCn2ccnc2C)c1,"inconclusive: 25.1 µM [inhibitor, partial curve, poor fit]",–
CC1CCCN(CCCCOc2cccc(Br)c2)C1 (stereo not drawn),"inconclusive: 0.501 µM [inhibitor, full curve, poor fit]",–
CCC(C)NC(=O)CN1c2cccc3cccc(c23)S1(=O)=O (stereo not drawn),"inconclusive: 39.8 µM [inhibitor, partial curve, poor fit]",–
C/C(=N\Nc1ccc([N+](=O)[O-])cc1[N+](=O)[O-])c1cccnc1,"inconclusive: 35.5 µM [inhibitor, partial curve]",–
O=c1oc2ccc(C#CC3(O)CCCCC3)cc2cc1-n1cc(-c2ccccn2)nn1,"inconclusive: 39.8 µM [inhibitor, partial curve, poor fit]",–
CCOC(=O)C1C(=O)C=C(c2ccc(F)cc2)CC1c1ccc(CC)cc1 (stereo not drawn),"inconclusive: 39.8 µM [inhibitor, partial curve, poor fit]",–

Compound,Potency,"activity change, negative = inhibition"
O=C(/C=C/c1cccs1)c1cccc(O)c1,"inconclusive: 56.2 µM [inhibitor, partial curve, poor fit]",–
S=c1[nH]nc(-c2ccc(Cl)cc2)n1-c1ccc(Cl)cc1,active: 10 µM,–
O=C(NC(=S)NC1CCCC1)c1ccccc1,active: 12.6 µM,–
C=C1c2cccc(C(F)(F)F)c2O[C@H](C(=O)OCC)[C@H]1OC,"inconclusive: 39.8 µM [inhibitor, partial curve, poor fit]",–
COc1ccc(C(C)=O)cc1COC(=O)c1ccc(N)c([N+](=O)[O-])c1,"inconclusive: 1.12 µM [inhibitor, full curve]",–
Cc1ccc(SCc2ccc(C(=O)N3CCCCC3)cc2)cc1,"inconclusive: 44.7 µM [inhibitor, partial curve, poor fit]",–
c1ccc2c(c1)ncn2CCCOc1ccc2c(c1)CCC2,–,inactive: 2.12%
COc1ccc(C2=NN(C(=O)CCC(=O)O)C(c3ccc([N+](=O)[O-])cc3)C2)cc1 (stereo not drawn),"inconclusive: 25.1 µM [inhibitor, single point]",–
N#C/C(=C/c1ccc(-c2ccc(C(=O)O)c(Cl)c2)o1)C(=O)NCC1CCCO1 (stereo not drawn),"inconclusive: 50.1 µM [inhibitor, partial curve, poor fit]",–
Cc1csc(SCC(=O)O)n1,"inconclusive: 35.5 µM [inhibitor, partial curve, poor fit]",–
CC(=O)c1ccccc1NC(=O)COC(=O)c1cc(=O)c2ccccc2o1,"inconclusive: 56.2 µM [inhibitor, single point]",–
COCCN1C(=O)c2ccccc2C(C(=O)NCc2ccco2)C12CCCCC2 (stereo not drawn),"inconclusive: 35.5 µM [inhibitor, partial curve, poor fit]",–
CSc1ncc(C(=O)Nc2ccccc2C)c(-c2ccccc2)n1,"inconclusive: 35.5 µM [inhibitor, partial curve, poor fit]",–
CCn1c(CCNC(=O)c2cccs2)nnc1SCC(=O)c1ccc(OC)cc1,"inconclusive: 0.631 µM [inhibitor, full curve]",–
Cc1csc(NC(=O)c2ccc3c(=O)n4c(nc3c2)CCCCC4)n1,–,inactive: -1.95%
COc1ccc(CCN2C(=O)c3cccnc3C2=O)cc1OC,–,inactive: 6.33%
O=C(COc1ccc2ccc(=O)oc2c1)Nc1ccc(F)c(F)c1,"inconclusive: 50.1 µM [inhibitor, single point]",–
Cc1cc2ccccn2c1C(=O)c1nc(NCc2ccccc2)ncc1Cl,–,inactive: -12.4%
CC1=C(C(=O)N(C)C)CC(CC(=O)NCc2cccc3ccccc23)C(=O)N1Cc1ccc(F)cc1 (stereo not drawn),"inconclusive: 126 µM [inhibitor, partial curve, poor fit]",–
COc1ccc(-c2nn(CC(=O)Nc3ccccc3F)c3c2cnc2ccc(F)cc23)cc1,"inconclusive: 126 µM [inhibitor, partial curve, poor fit]",–
Cc1ccc(NCCC(=O)c2cc3ccccc3o2)cc1Br,active: 35.5 µM,–

# Source: PubChem BioAssay AID1671190 (National Center for Advancing Translational Sciences (NCATS), 2021)
